A short description of the series: Retention on artificial surfaces under blood perfusion, all tubing. The conditions noted are these: 6 hours blood contact.

Structures are written as SMILES.

As to `CCCCCCCCCCCCCCCCCCCCCCN1C(=CC=CC2=[N+](CCCCCCCCCCCCCC)c3ccccc3C2(C)C)C(C)(C)c2cc([125I])ccc21` [Compound 12, N-docosanyl-N'-tetradecyl-5-iodo-3,3,3',3'-tetramethylindocarbocyanine chloride], the “Average retention on tubing” value is recorded as > 50%.

The record behind these values is patent publication US5667764A, “Compounds, compositions and methods for binding bio-affecting substances to surface membranes of bio-particles” (Zynaxis, Inc., priority 1992, dated 1997).
